Experimental data from paper doi:10.1101/2025.06.12.659326.
These are yes or no findings as the source states them, for the method shown. In cells and extracts the contact can be indirect. Some binding calls cover weakened binding; strength is not graded here.

The chains behind the UniProt entries cited, without tags or fusion partners.
UniProt Q9Y6G9: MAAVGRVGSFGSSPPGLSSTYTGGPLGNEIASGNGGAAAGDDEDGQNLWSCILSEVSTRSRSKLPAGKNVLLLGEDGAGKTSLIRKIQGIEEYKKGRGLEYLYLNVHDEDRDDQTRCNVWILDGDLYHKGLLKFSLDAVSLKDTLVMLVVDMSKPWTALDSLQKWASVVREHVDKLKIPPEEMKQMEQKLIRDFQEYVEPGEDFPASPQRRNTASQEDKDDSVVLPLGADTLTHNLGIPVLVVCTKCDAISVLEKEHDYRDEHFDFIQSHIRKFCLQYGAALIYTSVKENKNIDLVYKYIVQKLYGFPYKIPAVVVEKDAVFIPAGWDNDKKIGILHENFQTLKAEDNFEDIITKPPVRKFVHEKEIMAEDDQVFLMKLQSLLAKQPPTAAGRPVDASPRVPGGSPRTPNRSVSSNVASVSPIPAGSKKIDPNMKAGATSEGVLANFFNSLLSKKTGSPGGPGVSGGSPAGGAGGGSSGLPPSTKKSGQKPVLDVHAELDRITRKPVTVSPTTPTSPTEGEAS

Target: T1, occludin (OCLN), endogenous in U2OS cells (human (endogenous in U2OS)) (UniProt Q16625)
T1 sequence: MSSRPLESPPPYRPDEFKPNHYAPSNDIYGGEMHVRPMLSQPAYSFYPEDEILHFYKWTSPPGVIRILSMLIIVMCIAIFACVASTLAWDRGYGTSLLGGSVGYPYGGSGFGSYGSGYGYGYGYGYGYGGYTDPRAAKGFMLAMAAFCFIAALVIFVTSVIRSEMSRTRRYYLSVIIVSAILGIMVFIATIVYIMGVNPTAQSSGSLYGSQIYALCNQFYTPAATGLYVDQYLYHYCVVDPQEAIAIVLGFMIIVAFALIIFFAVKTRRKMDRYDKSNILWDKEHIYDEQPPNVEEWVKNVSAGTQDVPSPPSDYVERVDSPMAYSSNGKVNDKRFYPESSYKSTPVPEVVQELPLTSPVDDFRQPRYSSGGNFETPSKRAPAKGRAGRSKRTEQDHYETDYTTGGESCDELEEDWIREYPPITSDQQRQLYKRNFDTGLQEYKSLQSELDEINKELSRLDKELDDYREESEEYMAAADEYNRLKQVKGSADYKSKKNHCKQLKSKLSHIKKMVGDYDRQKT
Assay: co-IP; endogenous proteins in U2OS cell lysate; IP with anti-dynein IC, anti-OCLN C-terminal or control IgG antibody and Protein G beads; Co-IP buffer 1% Nonidet P-40, 10% glycerol, 50mM Tris pH 7.5, 150mM NaCl, 2mM EDTA; immunoblot

binding: binds
Substance: dynein light intermediate chain 1 (LIC1), endogenous in U2OS cells (from UniProt Q9Y6G9 1-523)
